Primary screen of a compound library

Source: ChEMBL document CHEMBL3988442, “University of Dundee, Small-Polar-MMV Screening Library” (2021).

A: 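Whole-parasite assay of Trypanosoma brucei over 72 hours; the read-out is not stated. Concentration: 30 µM. Higher reads as stronger inhibition (inferred: compounds with an IC50 in retests scored well above the rest). Values scatter widely below zero; nearly all retest evidence comes from the higher of the two concentrations used. Of about 64,000 compounds tested this way, about 940 (1.5%) reached 50% or more in at least one test.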
B: 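Assay of Toxoplasma gondii numbers, read through their beta-galactosidase reporter with a colour substrate. Compounds at 10 µM. Higher reads as fewer parasites (inferred from which compounds were picked for retests). Size under these conditions: about 67,000 compounds, about 260 of them at 50% or above in at least one test.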

Results are given as percent effect.
How 0% and 100% were set is not recorded. Most values in the screen are low, and negative values occur.
The compounds are a random part of those screened.

- COC(=O)Cn1c(C)cc(=O)c2cc(F)ccc21 | A: -56.52%; B: -7.979%
- OC(CN1CCC(c2ccn[nH]2)CC1)c1ccc(F)cc1F (configuration not stated) | A: -7.44%; B: -17.78%
- COc1ccc(OCc2sc(C3(O)CCCNCC3)nc2C)cc1.Cl (configuration not stated) | A: 57.18%; B: 5.061%
- Cc1ccccc1N1CCCN(C(=O)CCc2ccncc2)CC1 | A: -6.418%; B: -4.908%
- Cc1cc(CNC(=O)Cc2c(C)nc3cc(=O)[nH]n3c2C)no1 | B: -17.37%
- Cc1ncc(CN2CCC(CNS(=O)(=O)C3CC3)C2)cn1 (configuration not stated) | A: -37.02%; B: -0.5187%
- COc1ccc(F)cc1C(=O)C1CCCN(Cc2ccc(C)s2)C1 (configuration not stated) | A: -40.74%; B: -5.073%
- O=C(CS(=O)(=O)C1CCCC1)NC1CCCc2cc(OC(F)F)ccc21 (configuration not stated) | A: -18.4%; B: -12.54%
- Cc1cc(C)c(CNc2ncnc3c2cnn3C)c(=O)[nH]1 | A: -566.3%; B: -4.055%
- Cc1nc(C2CCCN2CCC(=O)N2CCc3ccccc32)no1 (configuration not stated) | A: -12.85%; B: 2.904%
- Cc1c2ncn(CC(=O)NC(C)C)c(=O)c2nn1C | A: -23.24%; B: 13.34%
- CC(C(=O)NCc1ccc(N2CCCC2)nc1)S(C)(=O)=O (configuration not stated) | A: -45.18%; B: 13.79%
- Cc1cc(C(=O)N2CCc3c(nc(-c4ccncc4)[nH]c3=O)C2)no1 | A: -15.69%; B: 7.294%
- CCn1cnnc1Cc1nc2c([nH]1)CC(c1ccc(Cl)cc1)CNC2=O (configuration not stated) | A: -23.61%; B: -5.514%
- COc1ccc(CN(Cc2cncn2C)CC2CCCO2)cc1OC.O=C(O)CC(O)(CC(=O)O)C(=O)O (configuration not stated) | A: 18.48%; B: -1.986%
- CC(C)n1c(C(=O)N2CCCC2)nc2c1CCN(C)C2.O=C(O)C(F)(F)F | A: -50.49%; B: 8.037%
- Cc1nc(NCc2nonc2C)cc(C(C)Cn2nc(C)c(C)c2C)n1 (configuration not stated) | A: -9.754%; B: -4.039%
- CCS(=O)(=O)CC(=O)NC(C)c1ccccc1Oc1ccccc1 (configuration not stated) | A: 5.3%; B: -1.023%
- OCCNc1nc(NCCc2ccccc2)nc2nccnc12 | A: 0.9955%; B: 11.06%
- Cc1csc(CNC(=O)N(C)Cc2ccncc2)n1 | B: 2.584%
- COc1cc(-n2ccnc2-c2ccc(C(=O)O)s2)ccc1NC(C)=O | A: -43.49%; B: 8.18%
- CN(C(=O)Cc1ccc2c(c1)OCCO2)C1CCCCC1 | A: 9.442%; B: 1.908%
- Cc1nccn1-c1ccc(=O)n(CCNC(=O)c2ccccn2)n1 | A: 2.018%; B: 25.95%
- CCc1ccc2c(C3CN(CC4CCC4)C3)ncn2c1.O=C(O)C(F)(F)F | A: -20.26%; B: -3.977%
- CCn1ccnc1CN1CCCN(C(=O)c2ccc(C#N)cc2)CC1 | A: -30.79%; B: -0.5394%
- Cc1cn2c(n1)CCC(NC(=O)c1ccc(S(C)(=O)=O)o1)C2 (configuration not stated) | A: -35.85%; B: 25.61%
- O=C1COc2ccc(S(=O)(=O)N3CCOCC3)c3c2N1CCC3 | A: -23.53%; B: -24.36%
- CCn1c(=O)n(CCC(=O)N(C)Cc2ccc(C)o2)c2ccccc21 | A: -25.43%; B: 12.18%
- Cc1cc(C(=O)N2CCN(c3nc4c(C)cccc4s3)CC2)no1 | A: -38.9%; B: 11.62%
- CC(=O)c1cc2c(=O)[nH]c(=O)n(C)c2nc1C | A: 9.139%; B: 2.596%
- Cc1c(C2CCCN(C(=O)C3CC3)C2)n2c(nc1=O)CCC2.Cl (configuration not stated) | A: 5.566%; B: 6.086%
- O=C(O)C(F)(F)F.O=C(O)C(F)(F)F.O=C(O)C(F)(F)F.[H][C@@]12CN(Cc3ccoc3)C[C@]1([H])OCCN2CCN1CCCC1 | A: -0.9218%; B: 1.705%

Once more, the final 2:

{"compound": "Cc1c(C2CCCN(C(=O)C3CC3)C2)n2c(nc1=O)CCC2.Cl", "stereo": "configuration not stated", "A": 5.566, "B": 6.086}
{"compound": "O=C(O)C(F)(F)F.O=C(O)C(F)(F)F.O=C(O)C(F)(F)F.[H][C@@]12CN(Cc3ccoc3)C[C@]1([H])OCCN2CCN1CCCC1", "A": -0.9218, "B": 1.705}